Results from PubChem BioAssay AID602441 (National Center for Advancing Translational Sciences (NCATS), 2012).
In all, about 1,300 compounds went through this assay and fewer than 10 were called active. Inconclusive results (about 9%) are left out. The call rests on the fitted dose curve; in most records, active means well fitted curve in the direction sought with a large enough effect; inconclusive means small, poorly fitted or top-dose-only effect, or another doubt; inactive means no such curve, though single readings can be large or run the other way. Some of the results follow.

Test: qHTS for antagonists of the Thyroid Stimulation Hormone Receptor: Hit Validation in Parental Cell Line; further: 0% is about no effect
Conditions: parental HEK293 cells lacking TSHR, counter-screen; series mostly up to 56.9 µM; activity change, negative = inhibition: at the top concentration
In short: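 Counterscreen in untransfected parental HEK-EM 293 cells. Lysate cAMP displaces cAMP-d2 from cryptate-tagged anti-cAMP antibody, and homogeneous TR-FRET is read at 665 nm with 337 nm excitation after stimulation.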

Structure (SMILES) | activity change, negative = inhibition
CCN(CC)c1ccc(C(=O)OCC(=O)N2CCCC2)cc1 | inactive: 2.27%
CN(Cc1ccccc1)S(=O)(=O)c1ccc(OCC(=O)NCc2ccccn2)cc1 | inactive: -4.22%
Cc1ccccc1N/C(SCc1ccc(Cl)cc1)=C(/C#N)C(=O)NCc1ccco1 | inactive: -5.16%
COc1c(/C=C2\SC(=Nc3ccccc3Cl)NC2=O)cccc1[N+](=O)[O-] | inactive: 7.28%
Cc1ccc(C(=O)N2c3ccccc3N(Cc3ccccc3)C(=O)C2(C)C)cc1 | inactive: -7.28%
CCC(=O)OCCNc1cc(Sc2nccn2C)c2nonc2c1[N+](=O)[O-] | inactive: -3.45%
C=CC(C)(C)c1c2occc2c(O)c2ccc(=O)oc12 | inactive: -4.53%
CSC1=NSC2=NC(=O)/C(=C\c3coc4ccccc4c3=O)C(=N)N12 | inactive: -3.37%
O=C1CCCC2=C1C(c1ccsc1)CC(=O)N2c1nnc(SCc2ccccc2)s1 (centres undefined) | inactive: 2.54%
CSc1ccccc1OCc1cc(C(=O)NC2CCc3ccccc32)no1 (centres undefined) | inactive: -0.98%
Cc1cc(Cl)c(S(=O)(=O)N2CCSCC2)cc1OCC(=O)NC1CCCCC1 | inactive: 0.373%
O=C(Nc1ccc(S(=O)(=O)N2CCCCC2)cc1)c1ccc(CN2CCOCC2)cc1 | inactive: -0.684%
O=C(Nc1nnc(S(=O)(=O)N2CCCCCC2)s1)c1cccc(Br)c1 | inactive: -5.41%
CSCC[C@H](NC(=O)c1ccc(Cl)c(S(=O)(=O)N2CCCC2)c1)c1nc2ccccc2[nH]1 | inactive: 0.265%
COc1ccc(/C=C2\CC/C(=C\c3ccc(OC)c(OC)c3)C2=O)cc1OC | inactive: -9.79%
Cc1ccc(C)c(N2CCN(C(=O)CCCCCn3c(=S)[nH]c4ccc(N5CCOCC5)cc4c3=O)CC2)c1 | inactive: -7.35%
O=S(=O)(/N=C(/Nc1cccc2ccccc12)c1ccccc1)c1cccs1 | inactive: 0.846%
C(=N\N1CCN(Cc2cccc3ccccc23)CC1)/c1cccnc1 | inactive: -5.86%
O=C(Nc1ccc([N+](=O)[O-])cc1Cl)c1cc(Cl)ccc1O | inactive: -8.6%
O=c1c2nncn2c2cccnc2n1CCNc1ncc(C(F)(F)F)cc1Cl | inactive: 3.82%
Cc1ccc(Sc2ncccc2NC(=O)c2ccccc2Cl)cc1 | inactive: 3.7%
CC1CC(=O)N(c2ccc(C(C)C)cc2)C(=O)C1 | inactive: 4.03%
COc1ccc(NC(=O)Cn2nnc(C(=O)NCc3cccs3)c2N)c(OC)c1 | inactive: 4.02%
CCCCn1c(-c2csc3c2CCCC3)n[nH]c1=S | inactive: -0.133%
COC(=O)c1c(NC(NC(=O)CC(C)C)C(Cl)(Cl)Cl)sc2c1CCC2 (centres undefined) | inactive: 2.42%
COC(=O)c1c(-c2ccc(SC)cc2)sc2ccccc12 | inactive: 4.49%
Cc1cccc(NC(=O)CCN2CCN(C)CC2)c1 | inactive: 4.85%
C=C(C)CNc1cc(S(=O)(=O)N2CCOCC2)ccc1Oc1ccccc1 | inactive: -7.9%
Cc1cc(C(=O)CCl)c(C)n1CCc1ccccc1 | inactive: -5.16%

Some values from the entries so far:
Entry for O=c1c2nncn2c2cccnc2n1CCNc1ncc(C(F)(F)F)cc1Cl under activity change, negative = inhibition: inactive: 3.82%
Entry for O=C(Nc1ccc([N+](=O)[O-])cc1Cl)c1cc(Cl)ccc1O under activity change, negative = inhibition: inactive: -8.6%
